The record followed here is paper PMC10653872.

Amino acid sequences for entries named in this document (tags omitted).
UniProt P06428: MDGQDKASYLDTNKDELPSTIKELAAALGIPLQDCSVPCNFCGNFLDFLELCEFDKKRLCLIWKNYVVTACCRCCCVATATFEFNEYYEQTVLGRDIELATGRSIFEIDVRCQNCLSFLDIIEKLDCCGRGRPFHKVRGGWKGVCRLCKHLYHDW
UniProt Q92585: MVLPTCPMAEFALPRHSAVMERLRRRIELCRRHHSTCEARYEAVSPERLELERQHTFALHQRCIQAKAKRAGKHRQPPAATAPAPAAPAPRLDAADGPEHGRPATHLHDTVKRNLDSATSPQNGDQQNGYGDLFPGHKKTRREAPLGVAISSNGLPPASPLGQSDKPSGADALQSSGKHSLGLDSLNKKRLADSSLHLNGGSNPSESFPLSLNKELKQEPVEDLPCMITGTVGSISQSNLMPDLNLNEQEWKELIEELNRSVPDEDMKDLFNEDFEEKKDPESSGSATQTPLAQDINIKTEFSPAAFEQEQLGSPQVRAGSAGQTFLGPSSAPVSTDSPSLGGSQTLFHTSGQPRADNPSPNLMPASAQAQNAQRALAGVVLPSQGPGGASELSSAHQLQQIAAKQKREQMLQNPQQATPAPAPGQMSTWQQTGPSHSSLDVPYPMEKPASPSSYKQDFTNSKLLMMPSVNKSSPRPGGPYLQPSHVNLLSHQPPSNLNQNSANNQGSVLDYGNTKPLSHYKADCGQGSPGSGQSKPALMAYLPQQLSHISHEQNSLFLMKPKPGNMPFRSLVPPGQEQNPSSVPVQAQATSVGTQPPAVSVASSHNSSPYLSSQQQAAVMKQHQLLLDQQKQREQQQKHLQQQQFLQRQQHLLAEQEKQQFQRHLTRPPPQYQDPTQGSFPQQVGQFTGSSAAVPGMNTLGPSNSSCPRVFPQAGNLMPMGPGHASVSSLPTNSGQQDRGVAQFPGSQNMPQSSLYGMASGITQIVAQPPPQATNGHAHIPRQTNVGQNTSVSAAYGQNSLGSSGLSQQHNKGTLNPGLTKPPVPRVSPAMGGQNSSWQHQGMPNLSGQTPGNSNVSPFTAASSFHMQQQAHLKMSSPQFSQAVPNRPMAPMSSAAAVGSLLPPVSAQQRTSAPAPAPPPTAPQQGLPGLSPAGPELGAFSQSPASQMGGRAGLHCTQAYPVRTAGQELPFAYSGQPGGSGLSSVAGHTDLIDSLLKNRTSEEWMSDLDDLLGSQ

Assay [1] addresses N-terminally FLAG/HA-tagged HPV8 E6, stably expressed in NOKs (HPV8 (human papillomavirus type 8)) (UniProt P06428). Put plainly: co-IP; FLAG immunoprecipitation (Anti-FLAG M2 Affinity Gel) from extracts of NOKs with stable expression of HPV8 E6; EBC buffer; western blot. Background: Immunoblotting shows a protein as a band on a membrane.
Assay [2] has as its target N-terminally FLAG/HA-tagged HPV8 E6 (HPV8 (human papillomavirus type 8)) (UniProt P06428). Put plainly: co-IP; FLAG immunoprecipitation (Anti-FLAG M2 Affinity Gel) from extracts of transiently transfected HCT116 cells; EBC buffer (50 mM Tris HCl pH 8.0, 150 mM NaCl, 0.5% NP40, 0.5 mM EDTA); western blot.
Assay [3] shares this target. The assay is described as above. This is another data set of the same source.
Assay [4] concerns the target N-terminally FLAG/HA-tagged HPV8 E6, stably expressed in iHFKs (HPV8 (human papillomavirus type 8)) (UniProt P06428). Put plainly: co-IP; FLAG immunoprecipitation (Anti-FLAG M2 Affinity Gel) from extracts of iHFKs with stable expression of HPV8 E6, untreated or treated with the Wnt activator CHIR99021; EBC buffer; western blot.

Where two headings read alike, the source gives them in different places. These are yes or no findings as the source states them, for the method shown. Binding seen in cells or lysates may run through a third protein. Some entries that bind do so weakly or less than the wild type.

Turning to “Mastermind Like Transcriptional Coactivator 1 (MAML1) (from UniProt Q92585 1-1016)”, the binding entry in assay [1] and in assay [2] was “binds” each time.

B1: B-cell CLL/lymphoma 9-like (BCL9L) (protein, UniProt Q86UU0 1-1499)
chain: MRILANKTRLPHPRRREAPGSPPLSPRGHCPPAPAKPMHPENKLTNHGKTGNGGAQSQHQNVNQGPTCNVGSKGVGAGNHGAKANQISPSNSSLKNPQAGVPPFSSLKGKVKRDRSVSVDSGEQREAGTPSLDSEAKEVAPRSKRRCVLERKQPYSGDEWCSGPDSEEDDKPIGATHNCNVADPAMAAPQLGPGQTTQLPLSESSVPGAPHGPPPGLRPDAPGGGGGGGGVPGKPPSQFVYVFTTHLANTAAEAVLQGRADSILAYHQQNVPRAKLDQAPKVPPTPEPLPLSTPSAGTPQSQPPPLPPPPPPAPGSAPPALPPEGPPEDSSQDLAPNSVGAASTGGGTGGTHPNTPTATTANNPLPPGGDPSSAPGPALLGEAAAPGNGQRSLVGSEGLSKEQLEHRERSLQTLRDIERLLLRSGETEPFLKGPPGGAGEGGPPAQAPPPPQQPPTAPPSGLKKYEEPLQSMISQTQSLGGPPLEHEVPGHPPGGDMGQQMNMMIQRLGQDSLTPEQVAWRKLQEEYYEEKRRKEEQIGLHGSRPLQDMMGMGGMMVRGPPPPYHSKPGDQWPPGMGAQLRGPMDVQDPMQLRGGPPFPGPRFPGNQIQRVPGFGGMQSMPMEVPMNAMQRPVRPGMGWTEDLPPMGGPSNFAQNTMPYPGGQGEAERFMTPRVREELLRHQLLEKRSMGMQRPLGMAGSGMGQSMEMERMMQAHRQMDPAMFPGQMAGGEGLAGTPMGMEFGGGRGLLSPPMGQSGLREVDPPMGPGNLNMNMNVNMNMNMNLNVQMTPQQQMLMSQKMRGPGDLMGPQGLSPEEMARVRAQNSSGVMGGPQKMLMPSQFPNQGQQGFSGGQGPYQAMSQDMGNTQDMFSPDQSSMPMSNVGTTRLSHMPLPPASNPPGTVHSAPNRGLGRRPSDLTISINQMGSPGMGHLKSPTLSQVHSPLVTSPSANLKSPQTPSQMVPLPSANPPGPLKSPQVLGSSLSVRSPTGSPSRLKSPSMAVPSPGWVASPKTAMPSPGVSQNKQPPLNMNSSTTLSNMEQGTLPPSGPRSSSSAPPANPPSGLMNPSLPFTSSPDPTPSQNPLSLMMTQMSKYAMPSSTPLYHNAIKTIATSDDELLPDRPLLPPPPPPQGSGPGISNSQPSQMHLNSAAAQSPMGMNLPGQQPLSHEPPPAMLPSPTPLGSNIPLHPNAQGTGGPPQNSMMMAPGGPDSLNAPCGPVPSSSQMMPFPPRLQQPHGAMAPTGGGGGGPGLQQHYPSGMALPPEDLPNQPPGPMPPQQHLMGKAMAGRMGDAYPPGVLPGVASVLNDPELSEVIRPTPTGIPEFDLSRIIPSEKPSSTLQYFPKSENQPPKAQPPNLHLMNLQNMMAEQTPSRPPNLPGQQGVQRGLNMSMCHPGQMSLLGRTGVPPQQGMVPHGLHQGVMSPPQGLMTQQNFMLMKQRGVGGEVYSQPPHMLSPQGSLMGPPPQQNLMVSHPLRQRSVSLDSQMGYLPAPGGMANLPF
Take B1: the binding entry in assay [3] and in assay [4] was “binds” each time.
